These are yes or no findings as the source states them, for the method shown. In cells and extracts the contact can be indirect. A yes stands for co-enrichment or nearness to the bait. Other partners may have been found. For some assays here: No binding means not detected with the bait.

Sequences of proteins named here, by UniProt entry; tags and fusion partners are left off.
UniProt P11260: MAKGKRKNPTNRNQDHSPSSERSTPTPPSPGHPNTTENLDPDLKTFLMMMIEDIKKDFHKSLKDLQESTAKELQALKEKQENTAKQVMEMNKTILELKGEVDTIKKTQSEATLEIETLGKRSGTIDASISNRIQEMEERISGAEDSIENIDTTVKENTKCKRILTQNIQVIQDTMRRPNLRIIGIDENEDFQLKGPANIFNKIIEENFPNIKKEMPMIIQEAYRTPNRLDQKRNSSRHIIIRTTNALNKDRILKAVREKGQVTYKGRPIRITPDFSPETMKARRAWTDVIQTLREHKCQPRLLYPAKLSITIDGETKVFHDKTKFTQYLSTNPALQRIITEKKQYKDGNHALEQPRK
UniProt Q61584: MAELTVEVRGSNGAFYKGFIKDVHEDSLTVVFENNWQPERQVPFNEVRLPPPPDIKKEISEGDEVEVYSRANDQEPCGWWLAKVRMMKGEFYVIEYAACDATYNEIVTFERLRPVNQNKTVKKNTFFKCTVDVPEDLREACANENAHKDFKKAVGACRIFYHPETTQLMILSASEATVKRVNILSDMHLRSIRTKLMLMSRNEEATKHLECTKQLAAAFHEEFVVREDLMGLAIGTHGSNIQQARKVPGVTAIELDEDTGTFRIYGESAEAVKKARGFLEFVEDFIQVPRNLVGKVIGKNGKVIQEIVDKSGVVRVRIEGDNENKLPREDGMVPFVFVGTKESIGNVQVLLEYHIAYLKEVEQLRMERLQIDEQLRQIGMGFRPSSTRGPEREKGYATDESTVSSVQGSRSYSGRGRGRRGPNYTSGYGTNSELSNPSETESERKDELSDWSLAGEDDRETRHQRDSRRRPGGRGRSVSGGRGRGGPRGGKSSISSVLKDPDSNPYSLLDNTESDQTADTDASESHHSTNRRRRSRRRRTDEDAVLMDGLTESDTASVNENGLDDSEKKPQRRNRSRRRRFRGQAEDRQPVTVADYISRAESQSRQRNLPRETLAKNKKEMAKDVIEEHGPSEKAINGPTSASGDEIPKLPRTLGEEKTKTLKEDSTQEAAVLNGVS
UniProt Q6ZQ08: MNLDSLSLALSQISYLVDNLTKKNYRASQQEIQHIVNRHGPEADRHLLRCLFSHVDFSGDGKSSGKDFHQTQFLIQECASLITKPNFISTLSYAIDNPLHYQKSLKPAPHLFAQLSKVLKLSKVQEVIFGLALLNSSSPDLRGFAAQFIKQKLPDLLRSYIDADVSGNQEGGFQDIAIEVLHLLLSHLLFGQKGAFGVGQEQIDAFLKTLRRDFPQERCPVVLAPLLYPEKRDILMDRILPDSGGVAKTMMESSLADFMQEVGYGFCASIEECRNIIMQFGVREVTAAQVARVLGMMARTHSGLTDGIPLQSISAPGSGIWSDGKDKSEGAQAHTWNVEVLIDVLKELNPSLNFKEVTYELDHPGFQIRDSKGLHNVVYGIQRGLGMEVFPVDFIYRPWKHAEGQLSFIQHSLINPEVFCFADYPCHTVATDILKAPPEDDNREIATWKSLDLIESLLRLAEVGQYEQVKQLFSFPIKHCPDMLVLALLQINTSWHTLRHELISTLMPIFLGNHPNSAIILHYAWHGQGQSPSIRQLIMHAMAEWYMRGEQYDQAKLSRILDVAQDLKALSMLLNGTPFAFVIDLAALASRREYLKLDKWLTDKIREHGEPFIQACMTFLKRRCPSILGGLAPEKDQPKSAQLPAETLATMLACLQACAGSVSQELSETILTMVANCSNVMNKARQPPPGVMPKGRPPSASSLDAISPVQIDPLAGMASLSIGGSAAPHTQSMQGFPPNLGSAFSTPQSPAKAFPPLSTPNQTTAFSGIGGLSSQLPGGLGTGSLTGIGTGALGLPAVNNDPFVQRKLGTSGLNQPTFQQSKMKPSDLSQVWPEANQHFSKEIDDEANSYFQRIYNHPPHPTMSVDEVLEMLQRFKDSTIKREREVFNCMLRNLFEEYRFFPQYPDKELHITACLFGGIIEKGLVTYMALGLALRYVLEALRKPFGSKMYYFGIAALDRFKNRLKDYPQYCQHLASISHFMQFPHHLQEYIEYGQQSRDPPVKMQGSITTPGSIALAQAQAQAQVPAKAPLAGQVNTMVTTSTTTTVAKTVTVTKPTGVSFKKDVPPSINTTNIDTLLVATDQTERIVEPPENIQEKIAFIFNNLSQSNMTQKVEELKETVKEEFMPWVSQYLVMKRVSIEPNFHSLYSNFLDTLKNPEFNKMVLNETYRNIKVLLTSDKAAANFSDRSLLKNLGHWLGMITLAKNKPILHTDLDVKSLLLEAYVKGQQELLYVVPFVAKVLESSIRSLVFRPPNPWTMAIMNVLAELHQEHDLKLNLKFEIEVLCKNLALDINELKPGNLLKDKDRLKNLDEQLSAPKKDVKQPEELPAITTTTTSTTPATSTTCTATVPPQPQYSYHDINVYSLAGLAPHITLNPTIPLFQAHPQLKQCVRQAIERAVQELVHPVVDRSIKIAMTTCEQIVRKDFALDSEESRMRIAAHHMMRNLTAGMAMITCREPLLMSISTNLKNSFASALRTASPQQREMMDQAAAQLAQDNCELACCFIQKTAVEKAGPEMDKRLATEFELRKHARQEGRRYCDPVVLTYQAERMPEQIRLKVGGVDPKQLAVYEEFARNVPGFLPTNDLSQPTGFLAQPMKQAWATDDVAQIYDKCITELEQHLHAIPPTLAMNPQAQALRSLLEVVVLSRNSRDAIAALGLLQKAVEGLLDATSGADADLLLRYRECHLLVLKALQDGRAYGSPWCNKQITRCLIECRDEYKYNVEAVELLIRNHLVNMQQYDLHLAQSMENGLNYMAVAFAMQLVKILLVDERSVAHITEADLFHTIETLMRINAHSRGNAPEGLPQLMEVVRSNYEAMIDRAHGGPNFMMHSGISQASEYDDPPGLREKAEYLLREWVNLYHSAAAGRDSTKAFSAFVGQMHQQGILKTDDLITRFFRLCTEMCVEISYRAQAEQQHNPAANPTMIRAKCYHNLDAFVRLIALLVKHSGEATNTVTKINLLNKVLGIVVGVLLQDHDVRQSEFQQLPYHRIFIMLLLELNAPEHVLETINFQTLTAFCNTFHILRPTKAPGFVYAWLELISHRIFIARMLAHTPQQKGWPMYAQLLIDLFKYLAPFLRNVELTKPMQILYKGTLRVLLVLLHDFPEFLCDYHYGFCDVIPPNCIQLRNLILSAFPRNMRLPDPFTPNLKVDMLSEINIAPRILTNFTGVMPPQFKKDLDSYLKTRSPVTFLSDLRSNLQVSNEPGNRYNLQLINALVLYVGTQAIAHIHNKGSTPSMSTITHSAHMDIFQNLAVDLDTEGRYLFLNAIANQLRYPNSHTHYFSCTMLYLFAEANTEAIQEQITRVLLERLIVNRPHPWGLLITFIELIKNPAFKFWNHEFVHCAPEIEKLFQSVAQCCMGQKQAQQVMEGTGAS
UniProt P63073: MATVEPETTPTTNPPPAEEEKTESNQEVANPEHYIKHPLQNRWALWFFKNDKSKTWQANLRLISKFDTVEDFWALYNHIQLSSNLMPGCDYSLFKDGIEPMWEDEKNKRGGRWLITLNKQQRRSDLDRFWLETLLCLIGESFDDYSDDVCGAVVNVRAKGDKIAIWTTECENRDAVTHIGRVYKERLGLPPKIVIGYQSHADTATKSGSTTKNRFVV
UniProt Q60809: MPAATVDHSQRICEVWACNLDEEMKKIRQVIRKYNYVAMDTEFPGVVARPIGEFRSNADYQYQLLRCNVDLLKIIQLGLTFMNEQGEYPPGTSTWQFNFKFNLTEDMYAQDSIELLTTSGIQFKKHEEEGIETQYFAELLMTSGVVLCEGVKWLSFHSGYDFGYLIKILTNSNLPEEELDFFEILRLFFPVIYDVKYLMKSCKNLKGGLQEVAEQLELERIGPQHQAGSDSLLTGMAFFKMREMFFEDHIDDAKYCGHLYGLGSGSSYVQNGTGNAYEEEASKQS

Here are results for ten molecules from article PMC10289378.

The target of assay [1] is LINE-1 (L1) ORF1p (mouse (endogenous in Mael^-/- testis)) (UniProt P11260). Briefly: affinity purification with mass spectrometry; anti-ORF1p antibody (Abcam ab216324) coupled to Dynabeads M-270 Epoxy, total Mael^-/- testicular extracts, 2.5 h at 4°C, washes in 100 mM KCl, 20 mM Tris-HCl pH 8.0, 0.3% NP-40 (higher stringency: 300 mM KCl); beads only or isotype IgG as negative controls; LC/MS/MS.

The target is the same in assay [2]. The description is as above. This is another data set of the same source.
The target is the same in assay [3]. Kind of assay: affinity purification with mass spectrometry; as a1, but Mael^-/- testis extract treated before immunoprecipitation with RNase A (10 μg/ml), RNase T1 (25 U/ml) and RNase I (50 U/ml), 30 min at room temperature.

Regarding FXR1 (from UniProt Q61584 1-677), the binding entry in assay [1] was “binds”.

On to CNOT6L (from UniProt Q8VEG6 1-555), for which the binding result in assay [1] is “binds”.

As for CNOT1 (from UniProt Q6ZQ08 1-2375), in assay [1], the binding entry was “no binding”.

Regarding eIF4E (from UniProt P63073 1-217), the binding result in assay [1] is recorded as “binds”.

For “CCR4-NOT complex subunit CNOT7 (from UniProt Q60809 1-285)”, the binding entry in assay [1] is recorded as “binds”.

B1: CNOT4 E3 ubiquitin ligase (protein, UniProt Q8BT14 1-575)
chain: MSRSPDAKEDPVECPLCMEPLEIDDINFFPCTCGYQICRFCWHRIRTDENGLCPACRKPYPEDPAVYKPLSQEELQRIKNEKKQKQNERKQKISENRKHLASVRVVQKNLVFVVGLSQRLADPEVLKRPEYFGKFGKIHKVVINNSTSYAGSQGPSASAYVTYIRSEDALRAIQCVNNVVVDGRTLKASLGTTKYCSYFLKNMQCPKPDCMYLHELGDEAASFTKEEMQAGKHQEYEQKLLQELYKLNPNFLQLSTGSVDKNKNKVTPLQRYDTPIDKPSDSLSIGNGDNSQQISNSDTPSPPPGLSKSNPVIPISSSNHSARSPFEGAVTESQSLFSDNFRHPNPIPSGLPPFPSSPQTPSDWPTAPEPQSLFTSETIPVSSSTDWQAAFGFGSSKQPEDDLGFDPFDVTRKALADLIEKELSVQDQPSLSPTSLQNASSHTTTAKGPGSGFLHSAAPTNANSLNSTFSVLPQRFPQFQQHRAVYNSFGFPGQAARYPWMAFPRNSIMHLNHTANPTSNSNFLDLNLPPQHNTGLGGIPIAGEEEVKVSTMPLSASSHSLQQGQQPTSLHTTVA
For the molecule B1, the binding result in assay [2] is given as “no binding”.

B2: PRKRA (protein, UniProt Q9WTX2 1-313)
chain: MSHSRHRAEAPPLQREDSGTFSLGKMITAKPGKTPIQVLHEYGMKTKNIPVYECERSDVQVHVPTFTFRVTVGDITCTGEGTSKKLAKHRAAEAAINILKANASICFAVPDPLMPDPSKQPKNQLNPIGSLQELAIHHGWRLPEYTLSQEGGPAHKREYTTICRLESFMETGKGASKKQAKRNAAEKFLAKFSNISPENHISLTNVVGHSLGCTWHSLRNSPGEKINLLKRSLLSLPNTDYIQLLSEIASEQGFNITYLDIEELSANGQYQCLAELSTSPITVCHGSGISCGNAQSDAAHNALQYLKIIAERK
Turning to B2, the binding result in assay [2] and in assay [3] was “binds” in each case.

B3: CAPRIN1 (protein, UniProt Q60865 1-707)
chain: MPSATSHSGSGSKSSGPPPPSGSSGSEAAAGAAAPASQHPATGTGAVQTEAMKQILGVIDKKLRNLEKKKGKLDDYQERMNKGERLNQDQLDAVSKYQEVTNNLEFAKELQRSFMALSQDIQKTIKKTARREQLMREEAEQKRLKTVLELQYVLDKLGDDDVRTDLKQGLSGVPILSEEELSLLDEFYKLVDPERDMSLRLNEQYEHASIHLWDLLEGKEKPVCGTTYKALKEIVERVFQSNYFDSTHNHQNGLCEEEEAASAPTVEDQVAEAEPEPAEEYTEQSEVESTEYVNRQFMAETQFSSGEKEQVDEWTVETVEVVNSLQQQPQAASPSVPEPHSLTPVAQSDPLVRRQRVQDLMAQMQGPYNFIQDSMLDFENQTLDPAIVSAQPMNPTQNMDMPQLVCPQVHSESRLAQSNQVPVQPEATQVPLVSSTSEGYTASQPLYQPSHATEQRPQKEPMDQIQATISLNTDQTTASSSLPAASQPQVFQAGTSKPLHSSGINVNAAPFQSMQTVFNMNAPVPPANEPETLKQQSQYQATYNQSFSSQPHQVEQTELQQDQLQTVVGTYHGSQDQPHQVPGNHQQPPQQNTGFPRSSQPYYNSRGVSRGGSRGARGLMNGYRGPANGFRGGYDGYRPSFSNTPNSGYSQSQFTAPRDYSGYQRDGYQQNFKRGSGQSGPRGAPRGRGGPPRPNRGMPQMNTQQVN
For the molecule B3, the binding result in assay [2] is listed as “binds”.

B4: TARBP2 (protein, UniProt P97473 1-365)
chain: MSEEDQGSGTTTGCGLPSIEQMLAANPGKTPISLLQEYGTRIGKTPVYDLLKAEGQAHQPNFTFRVTVGDTSCTGQGPSKKAAKHKAAEVALKHLKGGSMLEPALEDSSSFSLLDSSPPEDTPVVAAEAAAPVPSAVLTRSPPMEMQPPVSPQQSECNPVGALQELVVQKGWRLPEYMVTQESGPAHRKEFTMTCRVERFIEIGSGTSKKLAKRNAAAKMLLRVHTVPLDARDGNEAEPDDDHFSIGVSSRLDGLRNRGPGCTWDSLRNSVGEKILSLRSCSVGSLGALGSACCSVLSELSEEQAFHVSYLDIEELSLSGLCQCLVELSTQPATVCYGSATTREAARGDAAHRALQYLRIMAGSK
B4: the binding entry in assay [2] is listed as “binds weakly”.

B5: G3BP2 (protein, UniProt P97379 1-482)
chain: MVMEKPSPLLVGREFVRQYYTLLNKAPEYLHRFYGRNSSYVHGGVDASGKPQEAVYGQNDIHHKVLSLNFSECHTKIRHVDAHATLSDGVVVQVMGLLSNSGQPERKFMQTFVLAPEGSVPNKFYVHNDMFRYEDEVFGDSEPELDEESEDEVEEEQEDRQPSPEPVQENANSAYYDAHPVTNGIEEPLEESSHEPEPEPESETKTEELKPQVEEKHLEELEEKSATPPPAEPASLPQEPPKAFSWASVTSKNLPPSGTVSSSGIPPHVKAPVSQPRVDAKPEVQSQPPRVREQRPRERPGFPPRGPRPGRGDMEQNDSDNRRIIRYPDSHQLFVGNLPHDIDENELKEFFMSFGNVVELRINTKGVGGKLPNFGFVVFDDSEPVQRILIAKPIMFRGEVRLNVEEKKTRAARERETRGGGDDRRDIRRNDRGPGGPRGIVGGGMMRDRDGRGPPPRGGMTQKLGSGRGTGQMEGRFTGQRR
In the case of B5, the binding result in assay [2] is “binds”.
